{
  "source": "paper PMC5996148",
  "test_in_all_cases": "protein microarray (ProtoArray v5.0), streptavidin-Alexa Fluor 647",
  "conditions_in_all_cases": "3'-biotin; 20 mM Tris (pH 7.5), 5 mM MgCl2, 100 mM KCl, 0.1% Tween-20, A/T-rich and random oligonucleotide blockers; temperature not stated; high values mean tight binding",
  "key": {"[1]": {"test_system": "cAMP-dependent protein kinase inhibitor gamma (human)"}, "[2]": {"test_system": "cAMP-dependent protein kinase type I-beta regulatory subunit (human)"}, "[3]": {"test_system": "cAMP-dependent protein kinase type II-beta regulatory subunit (human)"}, "[4]": {"test_system": "cDNA FLJ30744 fis, clone FEBRA2000378. (human)"}, "[5]": {"test_system": "cDNA clone IMAGE:2906290, complete cds (human)"}, "[6]": {"test_system": "cDNA clone IMAGE:3892258 (human)"}, "[7]": {"test_system": "cDNA clone IMAGE:3928921, partial cds (human)"}, "[8]": {"test_system": "cDNA clone IMAGE:3949276, partial cds (human)"}, "[9]": {"test_system": "cDNA clone IMAGE:4292790 (human)"}, "[10]": {"test_system": "cDNA clone IMAGE:4396549 (human)"}, "[11]": {"test_system": "cDNA clone IMAGE:4476475, complete cds (human)"}, "[12]": {"test_system": "cDNA clone IMAGE:4827883 (human)"}, "[13]": {"test_system": "cDNA clone IMAGE:5263629 (human)"}, "[14]": {"test_system": "cDNA clone MGC:110973 IMAGE:6156156 (human)"}, "[15]": {"test_system": "cDNA clone MGC:120780 IMAGE:7939590 (human)"}, "[16]": {"test_system": "cDNA clone MGC:12166 IMAGE:3828551 (human)"}, "[17]": {"test_system": "cDNA clone MGC:12418 IMAGE:3934658, complete cds (human)"}, "[18]": {"test_system": "cDNA clone MGC:15478 IMAGE:2967661, complete cds (human)"}, "[19]": {"test_system": "cDNA clone MGC:163527 IMAGE:40146686 (human)"}, "[20]": {"test_system": "cDNA clone MGC:16743 IMAGE:4130428 (human)"}},
  "note": "The list shows a part of the results.",
  "data": [
    {"sequence": "GGGAGGCTGAGGCAGG [G4-1 biotinylated (PQS2)]", "values": [
      {"measurement": "binding signal", "setting": "[1]", "result": -0.359, "unit": "z-score"},
      {"measurement": "binding signal", "setting": "[2]", "result": -0.36, "unit": "z-score"},
      {"measurement": "binding signal", "setting": "[3]", "result": -0.351, "unit": "z-score"},
      {"measurement": "binding signal", "setting": "[4]", "result": -0.342, "unit": "z-score"},
      {"measurement": "binding signal", "setting": "[5]", "result": -0.355, "unit": "z-score"},
      {"measurement": "binding signal", "setting": "[6]", "result": -0.305, "unit": "z-score"},
      {"measurement": "binding signal", "setting": "[7]", "result": -0.288, "unit": "z-score"},
      {"measurement": "binding signal", "setting": "[8]", "result": -0.246, "unit": "z-score"},
      {"measurement": "binding signal", "setting": "[9]", "result": -0.359, "unit": "z-score"},
      {"measurement": "binding signal", "setting": "[10]", "result": -0.363, "unit": "z-score"},
      {"measurement": "binding signal", "setting": "[11]", "result": -0.293, "unit": "z-score"},
      {"measurement": "binding signal", "setting": "[12]", "result": -0.314, "unit": "z-score"},
      {"measurement": "binding signal", "setting": "[13]", "result": -0.36, "unit": "z-score"},
      {"measurement": "binding signal", "setting": "[14]", "result": -0.322, "unit": "z-score"},
      {"measurement": "binding signal", "setting": "[15]", "result": -0.327, "unit": "z-score"},
      {"measurement": "binding signal", "setting": "[16]", "result": -0.324, "unit": "z-score"},
      {"measurement": "binding signal", "setting": "[17]", "result": -0.312, "unit": "z-score"},
      {"measurement": "binding signal", "setting": "[18]", "result": -0.356, "unit": "z-score"},
      {"measurement": "binding signal", "setting": "[19]", "result": -0.298, "unit": "z-score"},
      {"measurement": "binding signal", "setting": "[20]", "result": -0.35, "unit": "z-score"}
    ]}
  ]
}
